# Measurements reported in PubChem BioAssay AID1487 (National Center for Advancing Translational Sciences (NCATS), 2009).
# This is one part of the list. The main result of the screen is listed elsewhere. These columns were measured beside it and carry no call. Most of these compounds were active or inconclusive in the main read-out, so they are no random draw. The note in brackets gives the kind of curve behind each potency; many fits are weak.
# Test: qHTS Assay for Modulators of Lamin A Splicing
# Conditions: HeLa LMNA splicing GFP/RFP minigene ratio, 48 h
# In short: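 Read-out is the ratio of GFP to DsRed2 object intensity, acquired by 488 nm laser-scanning cytometry on HeLa lamin A-EGFP minigene reporter cells. Compound incubation 48 hrs at 37 °C in Opti-MEM with 2% FBS; DMSO 0.5% final.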
# [1] = measured here: RFP viability control channel
# [2] = measured here: GFP splicing reporter channel
Compound,AC50 [1],AC50 [2]
COCCn1c(C)cc(/C=N/NC(=O)c2cccnc2)c1C,"35.5 µM [rising, partial curve, poor fit]",–
COc1ccc(CCN2C(=O)CC(Cc3ccc(Br)cc3)C2=O)cc1OC (stereo not given),"28.2 µM [rising, single point]","22.4 µM [rising, single point]"
CC1CN(c2nc3ccccc3nc2C(C#N)C(=O)NC2CCCCC2)CC(C)O1 (stereo not given),–,"31.6 µM [rising, single point]"
N#Cc1cc([N+](=O)[O-])ccc1N1CCCC1,"12.6 µM [rising, partial curve, poor fit]","10 µM [rising, partial curve, poor fit]"
CN1C(=O)/C(=C/c2ccco2)SC1=Nc1cccc(C(=O)O)c1,"11.2 µM [falling, partial curve, poor fit]","0.141 µM [falling, partial curve, poor fit]"
N#CCCn1c2ccccc2c2nc3ccccc3nc21,"12.6 µM [rising, partial curve, poor fit]",–
OC1CCN(c2cc(-c3ccccc3)nc3cc(-c4ccc(F)cc4)nn23)CC1,"35.5 µM [falling, single point]","35.5 µM [falling, single point]"
O=C(Nc1ccccc1Br)N1CCC(CN2CCCC2)CC1,"0.0316 µM [falling, full curve, poor fit]",–
CCOc1ccccc1Cn1c(=O)oc2ccc(C)cc21,"31.6 µM [rising, single point]",–
O=C(c1cccc(COc2cccc3ccccc23)c1)N1CCCC1,"22.4 µM [rising, single point]",–
c1ccc(-c2cc3c(N4CCN(c5ccccc5)CC4)ncnc3s2)cc1,"0.891 µM [rising, full curve]",–
COc1ccc(NS(=O)(=O)c2cc(NC(=O)c3cnccn3)ccc2N2CCCC2)cc1,–,"3.98 µM [falling, partial curve, poor fit]"
Cc1ccc(N(CC(=O)Nc2ccc(F)cc2)S(=O)(=O)N2CCCC2)cc1,"35.5 µM [rising, single point]","31.6 µM [rising, single point]"
CCC(C)c1ccccc1NC(=S)Nc1cccnc1 (stereo not given),–,"35.5 µM [rising, single point]"
O=C(NC(=S)N1CCN(c2ccc([N+](=O)[O-])cc2)CC1)c1ccc(F)cc1,–,"22.4 µM [rising, single point]"
COc1ccc(CN2CCN(C(=O)c3cc(-c4cccnc4)nc4ccc(Cl)cc34)CC2)c(OC)c1OC,"22.4 µM [rising, partial curve, poor fit]","0.0355 µM [rising, full curve, poor fit]"
CCN1C(=O)c2cccc3c(S(=O)(=O)Nc4ccc(OC)cc4OC)ccc1c23,"14.1 µM [rising, partial curve]","12.6 µM [rising, partial curve]"
CCC1CN(C(=O)C2CCN(S(=O)(=O)c3c(C)noc3/C=C/c3ccccc3F)CC2)c2cc(C)ccc2O1 (stereo not given),"0.0562 µM [rising, full curve, poor fit]",–
COC(=O)c1[nH]c2ccccc2c1NC(=O)CN1CC(C)OC(C)C1 (stereo not given),–,"3.16 µM [rising, partial curve]"
O=C(CSc1nnc(-c2ccco2)n1Cc1ccccc1)NC(=O)NCc1ccccc1,"20 µM [rising, single point]",–
Cc1ccc(C)c(OCc2ccc(C(=O)N3N=C(C(F)F)CC3(O)C(F)F)o2)c1 (stereo not given),"17.8 µM [rising, single point]",–
CCOc1ccc(-c2nnc(-c3ccncc3)o2)cc1OCC,–,"3.16 µM [rising, partial curve, poor fit]"
CCN1CCN(c2cc(C)c3cc(NC(=O)c4ccc(OC)c(OC)c4)ccc3n2)CC1,"20 µM [rising, single point]",–
CCc1cccc(NC(=O)C2CCN(S(=O)(=O)c3cccc(-c4noc(C)n4)c3)CC2)c1,"0.0282 µM [falling, full curve]",–
NS(=O)(=O)c1cc2c(cc1Cl)NC(C(Cl)Cl)NS2(=O)=O (stereo not given),–,"0.0891 µM [rising, full curve, poor fit]"
COc1ccc(C2c3cccn3CCN2S(=O)(=O)c2ccc([N+](=O)[O-])cc2)cc1 (stereo not given),"12.6 µM [rising, partial curve, poor fit]",–
O=C(Nc1ccc(F)cc1)c1nc[nH]c1C(=O)Nc1ccccc1[N+](=O)[O-],–,"3.16 µM [falling, full curve]"

Compound,AC50 [1],AC50 [2]
CCOc1ccc(NC(=S)N(CCc2c(C)[nH]c3ccc(C)cc23)Cc2cccnc2)cc1,"0.0631 µM [rising, partial curve, poor fit]",–
CCCCc1cc2c(cn1)=C(OC(=O)c1cccs1)C(C)(OC(=O)CC)C(=O)C=2 (stereo not given),–,"0.00158 µM [rising, full curve, poor fit]"
CN1CCN(C2Cc3ccccc3Sc3ccc(Cl)cc32)CC1 (stereo not given),"35.5 µM [falling, partial curve, poor fit]","28.2 µM [falling, partial curve, poor fit]"
CNc1ccccc1C(C)(C)c1cc(-c2ccco2)n[nH]1,"12.6 µM [rising, single point]","10 µM [rising, partial curve, poor fit]"
O=C(CSc1nnc(COc2cccc3cccnc23)o1)c1ccc(F)cc1,"11.2 µM [rising, single point]","11.2 µM [rising, partial curve]"
Cc1nn(C)c2c1c(C(F)(F)F)cc(=O)n2CC(=O)N1CCC(C)CC1,"35.5 µM [rising, single point]","35.5 µM [rising, single point]"
CC(C)c1ccc(CN(C(=O)C2COc3ccccc3O2)C2CCS(=O)(=O)C2)cc1 (stereo not given),"0.282 µM [falling, full curve]","0.316 µM [falling, full curve]"
O=C(c1cc2cc([N+](=O)[O-])ccc2oc1=O)N1CCOCC1,"11.2 µM [rising, single point]",–
COc1ccc(S(=O)(=O)NCC2CCCN(C(=O)C=C(C)C)C2)cc1 (stereo not given),"0.0501 µM [falling, full curve]","1.26 µM [falling, full curve]"
CC(=O)N1CC=CC1(CC(C)C)C(=O)NCCN1CCOCC1 (stereo not given),"5.62 µM [falling, partial curve, poor fit]","3.98 µM [falling, partial curve, poor fit]"
Cc1ccc(-n2nnnc2SC(C)C(=O)NCC(=O)Nc2ccc(F)c(F)c2F)c(C)c1 (stereo not given),"11.2 µM [rising, partial curve]",–
CC(C)c1ccc(/C=N/NC(=O)CC(=O)NC2CCCCC2)cc1,"0.282 µM [falling, full curve, poor fit]",–
CN(Cc1ccco1)c1ccnc(-c2ccoc2)n1,–,"31.6 µM [rising, single point]"
COC(=O)c1[nH]c2cccc(Cl)c2c1NC(=O)CN(C)C1CCCCC1,"3.55 µM [rising, full curve, poor fit]","4.47 µM [rising, full curve, poor fit]"
Cc1nn(-c2ccc(C(=O)O)cc2)c(C)c1Cl,–,"0.178 µM [rising, full curve, poor fit]"
C=C(C)CNC(=S)N/N=C(\C)c1ccc(Cl)s1,"14.1 µM [falling, partial curve, poor fit]","11.2 µM [falling, partial curve, poor fit]"
CC1(C)CC(N2CCN(c3ccccc3)CC2)=CC(=[N+]2CCCC2)C1,"2.82 µM [rising, full curve]","2.82 µM [rising, full curve, poor fit]"
CCOc1ccc(CN(C)CC(=O)Nc2ccc([N+](=O)[O-])cc2Cl)cc1,"35.5 µM [rising, single point]",–
Cc1[nH]n(C2=NCCS2)c(=O)c1N=Nc1cccc(C(F)(F)F)c1,"5.01 µM [falling, partial curve, poor fit]","2 µM [falling, full curve]"
CN1C2CCC1/C(=C\c1ccc(F)cc1)C(=O)/C2=C/c1ccc(F)cc1,"15.8 µM [rising, partial curve]",–
C=CCSc1nnc(NC(=O)c2ccc(S(=O)(=O)NCC3CCCO3)cc2)s1 (stereo not given),"17.8 µM [rising, single point]",–
Nc1ccc(O)cc1C(=O)OCC(=O)c1ccc(C2CCCCC2)cc1,"31.6 µM [rising, single point]","20 µM [rising, single point]"
Cc1cc(NC(=S)N(CCN2CCCCC2)Cc2ccco2)ccc1Cl,–,"15.8 µM [falling, partial curve]"
c1ccc2c(c1)CCN(c1ncnc3c1[nH]c1ccccc13)C2,"2.82 µM [rising, partial curve]","7.08 µM [rising, partial curve, poor fit]"
CCCCOc1ccc(C(=O)N/C(=C/C=C/c2ccccc2)C(=O)N2CCOCC2)cc1,"12.6 µM [rising, partial curve]",–
NNc1nc(-c2ccccc2)cc(-c2ccccc2O)n1,–,"11.2 µM [falling, single point]"
CCCOC(=O)c1c(-c2ccc(C)cc2C)csc1NC(=O)C1C2CCC(O2)C1C(=O)O (stereo not given),"10 µM [rising, partial curve, poor fit]","10 µM [rising, partial curve]"

# Molecules from the list above containing bromine, in the order listed:
Compound,AC50 [1],AC50 [2]
COc1ccc(CCN2C(=O)CC(Cc3ccc(Br)cc3)C2=O)cc1OC (stereo not given),"28.2 µM [rising, single point]","22.4 µM [rising, single point]"
O=C(Nc1ccccc1Br)N1CCC(CN2CCCC2)CC1,"0.0316 µM [falling, full curve, poor fit]",–
